# Laboratory results taken from the supplement of paper PMC12819154, “High-throughput peptide-centric local stability assay extends protein–ligand identification to membrane proteins, tissues and bacteria” (Nature Structural & Molecular Biology, 2025).
# The chains behind the UniProt entries cited, without tags or fusion partners. Where a name states a change or a piece, a line headed by the entry shows the natural chain unless it says otherwise.
# UniProt O88895: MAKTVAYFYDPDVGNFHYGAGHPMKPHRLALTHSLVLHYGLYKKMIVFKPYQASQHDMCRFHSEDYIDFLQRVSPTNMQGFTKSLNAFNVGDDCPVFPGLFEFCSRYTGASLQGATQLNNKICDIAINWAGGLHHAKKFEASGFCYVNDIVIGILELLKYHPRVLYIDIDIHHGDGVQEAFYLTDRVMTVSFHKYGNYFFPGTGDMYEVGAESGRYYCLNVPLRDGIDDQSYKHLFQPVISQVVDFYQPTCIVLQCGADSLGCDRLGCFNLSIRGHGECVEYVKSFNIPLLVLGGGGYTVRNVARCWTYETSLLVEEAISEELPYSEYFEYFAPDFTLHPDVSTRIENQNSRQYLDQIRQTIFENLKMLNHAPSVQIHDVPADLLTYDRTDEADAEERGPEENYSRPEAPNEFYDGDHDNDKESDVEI
# UniProt O09158: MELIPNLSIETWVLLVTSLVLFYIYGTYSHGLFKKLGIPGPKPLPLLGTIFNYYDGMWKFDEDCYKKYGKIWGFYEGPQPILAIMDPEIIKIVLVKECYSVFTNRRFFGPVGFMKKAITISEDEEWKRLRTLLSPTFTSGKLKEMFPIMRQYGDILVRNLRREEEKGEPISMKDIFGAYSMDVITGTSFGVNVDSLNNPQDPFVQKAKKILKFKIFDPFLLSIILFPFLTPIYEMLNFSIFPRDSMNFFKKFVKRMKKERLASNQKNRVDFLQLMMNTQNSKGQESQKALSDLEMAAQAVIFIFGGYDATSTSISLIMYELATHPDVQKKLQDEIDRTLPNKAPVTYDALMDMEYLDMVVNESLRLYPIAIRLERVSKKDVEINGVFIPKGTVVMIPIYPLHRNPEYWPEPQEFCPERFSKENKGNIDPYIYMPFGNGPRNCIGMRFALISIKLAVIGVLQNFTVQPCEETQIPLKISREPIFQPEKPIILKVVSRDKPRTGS
# UniProt O88958: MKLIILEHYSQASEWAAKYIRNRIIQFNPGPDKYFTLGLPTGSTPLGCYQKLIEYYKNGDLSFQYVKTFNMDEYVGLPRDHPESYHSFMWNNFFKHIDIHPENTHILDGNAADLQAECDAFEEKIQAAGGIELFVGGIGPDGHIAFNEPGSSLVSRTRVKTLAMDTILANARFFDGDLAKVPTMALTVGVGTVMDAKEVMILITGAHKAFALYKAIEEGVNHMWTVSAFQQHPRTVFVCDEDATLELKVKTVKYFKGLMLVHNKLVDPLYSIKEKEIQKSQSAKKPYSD
# UniProt O35166: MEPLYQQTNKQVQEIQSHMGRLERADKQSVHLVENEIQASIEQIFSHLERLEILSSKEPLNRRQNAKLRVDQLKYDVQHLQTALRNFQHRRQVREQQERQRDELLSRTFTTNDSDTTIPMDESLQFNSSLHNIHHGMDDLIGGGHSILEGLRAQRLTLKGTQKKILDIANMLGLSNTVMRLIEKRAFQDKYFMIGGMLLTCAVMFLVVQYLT
# UniProt O08808, whole entry: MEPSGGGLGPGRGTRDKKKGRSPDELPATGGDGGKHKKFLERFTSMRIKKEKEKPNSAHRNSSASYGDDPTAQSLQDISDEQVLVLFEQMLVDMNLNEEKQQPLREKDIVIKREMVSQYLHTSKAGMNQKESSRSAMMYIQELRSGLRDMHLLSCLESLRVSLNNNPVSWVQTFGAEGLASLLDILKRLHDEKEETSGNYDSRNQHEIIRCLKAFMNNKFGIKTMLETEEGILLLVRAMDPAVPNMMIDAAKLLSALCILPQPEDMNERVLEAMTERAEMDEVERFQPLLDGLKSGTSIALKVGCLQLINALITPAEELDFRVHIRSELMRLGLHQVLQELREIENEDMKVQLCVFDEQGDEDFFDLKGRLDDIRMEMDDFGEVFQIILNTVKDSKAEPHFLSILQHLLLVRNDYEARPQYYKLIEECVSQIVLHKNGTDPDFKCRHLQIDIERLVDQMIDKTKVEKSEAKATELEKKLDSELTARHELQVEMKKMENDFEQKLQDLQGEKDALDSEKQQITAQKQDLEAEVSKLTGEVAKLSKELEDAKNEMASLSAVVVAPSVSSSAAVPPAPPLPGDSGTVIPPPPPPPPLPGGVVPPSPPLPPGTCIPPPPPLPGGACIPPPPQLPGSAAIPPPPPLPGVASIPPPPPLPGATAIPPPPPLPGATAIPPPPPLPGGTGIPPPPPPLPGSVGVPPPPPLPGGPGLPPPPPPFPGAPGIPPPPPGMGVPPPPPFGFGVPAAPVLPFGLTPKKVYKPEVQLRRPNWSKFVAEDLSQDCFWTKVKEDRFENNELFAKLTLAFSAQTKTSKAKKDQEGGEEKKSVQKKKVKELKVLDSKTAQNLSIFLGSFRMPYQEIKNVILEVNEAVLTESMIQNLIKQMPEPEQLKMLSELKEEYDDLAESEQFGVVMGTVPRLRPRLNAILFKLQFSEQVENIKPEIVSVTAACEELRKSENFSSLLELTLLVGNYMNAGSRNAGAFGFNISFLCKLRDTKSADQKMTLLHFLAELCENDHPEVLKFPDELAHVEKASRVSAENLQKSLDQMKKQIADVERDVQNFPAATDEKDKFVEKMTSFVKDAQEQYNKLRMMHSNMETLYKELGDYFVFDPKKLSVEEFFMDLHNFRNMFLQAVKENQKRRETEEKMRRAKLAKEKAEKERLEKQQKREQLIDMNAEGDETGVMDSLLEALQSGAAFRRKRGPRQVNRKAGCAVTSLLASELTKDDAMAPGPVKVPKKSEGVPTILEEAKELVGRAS
# UniProt O88543: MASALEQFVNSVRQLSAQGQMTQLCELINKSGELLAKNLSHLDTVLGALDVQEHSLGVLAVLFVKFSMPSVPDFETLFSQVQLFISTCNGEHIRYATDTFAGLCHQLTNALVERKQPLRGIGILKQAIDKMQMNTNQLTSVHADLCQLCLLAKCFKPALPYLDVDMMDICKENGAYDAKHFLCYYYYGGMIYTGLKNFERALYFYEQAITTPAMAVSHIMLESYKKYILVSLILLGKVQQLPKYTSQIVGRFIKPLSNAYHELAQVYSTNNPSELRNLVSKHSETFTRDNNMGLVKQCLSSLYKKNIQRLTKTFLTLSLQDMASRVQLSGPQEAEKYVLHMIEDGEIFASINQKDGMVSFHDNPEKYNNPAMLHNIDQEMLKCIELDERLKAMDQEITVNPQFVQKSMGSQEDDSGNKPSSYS
# UniProt P00375: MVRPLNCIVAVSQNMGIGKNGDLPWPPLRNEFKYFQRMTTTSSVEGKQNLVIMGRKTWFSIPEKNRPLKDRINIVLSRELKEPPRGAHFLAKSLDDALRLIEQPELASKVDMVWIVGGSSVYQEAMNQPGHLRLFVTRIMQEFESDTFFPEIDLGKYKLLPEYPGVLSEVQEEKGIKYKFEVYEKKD
# UniProt O70378: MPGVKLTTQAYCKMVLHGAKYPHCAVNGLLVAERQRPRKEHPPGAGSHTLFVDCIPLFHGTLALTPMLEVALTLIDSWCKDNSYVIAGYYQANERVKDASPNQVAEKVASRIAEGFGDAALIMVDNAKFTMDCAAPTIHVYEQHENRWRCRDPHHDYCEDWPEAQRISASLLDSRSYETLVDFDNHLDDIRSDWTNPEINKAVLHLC
# UniProt O70589: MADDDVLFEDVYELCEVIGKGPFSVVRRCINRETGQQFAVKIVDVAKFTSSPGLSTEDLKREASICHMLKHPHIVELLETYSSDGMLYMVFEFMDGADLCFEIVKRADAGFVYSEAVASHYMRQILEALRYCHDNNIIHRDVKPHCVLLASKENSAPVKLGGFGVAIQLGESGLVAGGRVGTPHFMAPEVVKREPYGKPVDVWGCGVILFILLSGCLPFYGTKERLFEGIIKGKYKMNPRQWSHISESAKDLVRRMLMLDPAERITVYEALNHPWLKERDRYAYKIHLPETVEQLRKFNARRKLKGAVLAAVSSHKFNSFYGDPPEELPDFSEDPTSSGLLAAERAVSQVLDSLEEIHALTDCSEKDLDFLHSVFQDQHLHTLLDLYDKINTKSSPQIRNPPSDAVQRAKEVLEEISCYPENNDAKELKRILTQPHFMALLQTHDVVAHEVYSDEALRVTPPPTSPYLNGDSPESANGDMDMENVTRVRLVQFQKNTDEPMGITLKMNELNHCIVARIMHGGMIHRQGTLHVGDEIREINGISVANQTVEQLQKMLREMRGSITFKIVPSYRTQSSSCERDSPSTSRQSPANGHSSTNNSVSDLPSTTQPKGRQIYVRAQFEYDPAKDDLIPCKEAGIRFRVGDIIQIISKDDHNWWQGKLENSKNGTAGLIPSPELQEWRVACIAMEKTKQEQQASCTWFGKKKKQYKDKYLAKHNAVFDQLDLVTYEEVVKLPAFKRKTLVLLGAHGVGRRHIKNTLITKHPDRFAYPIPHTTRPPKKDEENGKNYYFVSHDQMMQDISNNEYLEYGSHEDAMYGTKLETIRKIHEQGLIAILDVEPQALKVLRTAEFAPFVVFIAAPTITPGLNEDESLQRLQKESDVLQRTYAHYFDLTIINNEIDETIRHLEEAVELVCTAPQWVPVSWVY
# UniProt O54946: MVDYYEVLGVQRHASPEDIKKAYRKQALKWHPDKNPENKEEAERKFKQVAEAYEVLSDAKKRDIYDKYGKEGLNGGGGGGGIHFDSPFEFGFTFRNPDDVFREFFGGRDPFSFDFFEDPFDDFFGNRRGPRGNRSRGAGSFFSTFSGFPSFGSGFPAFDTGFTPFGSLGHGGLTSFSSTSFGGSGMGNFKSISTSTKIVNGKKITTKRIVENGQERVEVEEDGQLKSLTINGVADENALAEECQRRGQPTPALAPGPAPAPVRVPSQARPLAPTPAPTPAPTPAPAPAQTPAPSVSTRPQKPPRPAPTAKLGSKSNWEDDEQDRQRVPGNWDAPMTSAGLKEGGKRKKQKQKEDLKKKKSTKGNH
# UniProt O08705: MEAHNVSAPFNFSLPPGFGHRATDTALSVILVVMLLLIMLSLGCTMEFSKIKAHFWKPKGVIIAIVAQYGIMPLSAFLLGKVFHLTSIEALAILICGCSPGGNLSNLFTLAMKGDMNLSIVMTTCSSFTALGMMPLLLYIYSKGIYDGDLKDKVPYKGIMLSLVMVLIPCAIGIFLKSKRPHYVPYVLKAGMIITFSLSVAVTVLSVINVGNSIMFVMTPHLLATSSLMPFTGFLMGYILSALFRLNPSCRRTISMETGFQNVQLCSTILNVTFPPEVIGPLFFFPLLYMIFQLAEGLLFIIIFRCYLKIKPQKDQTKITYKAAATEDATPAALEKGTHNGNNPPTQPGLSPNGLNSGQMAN
# UniProt O35445: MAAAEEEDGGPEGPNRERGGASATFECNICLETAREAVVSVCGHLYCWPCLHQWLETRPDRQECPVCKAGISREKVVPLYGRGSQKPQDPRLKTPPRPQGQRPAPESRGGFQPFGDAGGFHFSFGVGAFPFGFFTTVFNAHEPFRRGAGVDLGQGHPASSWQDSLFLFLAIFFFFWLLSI
# UniProt O35386: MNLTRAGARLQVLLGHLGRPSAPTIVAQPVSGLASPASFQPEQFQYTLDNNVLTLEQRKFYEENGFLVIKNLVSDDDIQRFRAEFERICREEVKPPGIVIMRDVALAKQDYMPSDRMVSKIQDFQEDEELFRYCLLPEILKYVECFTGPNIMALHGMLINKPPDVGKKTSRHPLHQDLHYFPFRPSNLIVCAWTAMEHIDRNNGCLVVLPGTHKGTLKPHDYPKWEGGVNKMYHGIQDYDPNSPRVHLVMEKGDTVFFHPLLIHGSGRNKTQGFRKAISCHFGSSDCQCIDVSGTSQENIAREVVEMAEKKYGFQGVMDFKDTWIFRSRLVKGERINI
# UniProt P01831: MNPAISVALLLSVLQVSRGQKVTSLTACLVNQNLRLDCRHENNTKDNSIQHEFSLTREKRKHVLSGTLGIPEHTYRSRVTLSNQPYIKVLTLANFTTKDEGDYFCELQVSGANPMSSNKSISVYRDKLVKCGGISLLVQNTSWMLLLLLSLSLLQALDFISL
# UniProt O35943: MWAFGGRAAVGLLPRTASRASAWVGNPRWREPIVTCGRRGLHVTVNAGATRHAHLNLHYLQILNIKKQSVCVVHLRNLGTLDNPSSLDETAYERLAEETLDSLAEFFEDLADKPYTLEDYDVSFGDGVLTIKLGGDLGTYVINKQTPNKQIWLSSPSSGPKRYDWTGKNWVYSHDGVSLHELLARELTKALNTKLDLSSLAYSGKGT
# UniProt O09172: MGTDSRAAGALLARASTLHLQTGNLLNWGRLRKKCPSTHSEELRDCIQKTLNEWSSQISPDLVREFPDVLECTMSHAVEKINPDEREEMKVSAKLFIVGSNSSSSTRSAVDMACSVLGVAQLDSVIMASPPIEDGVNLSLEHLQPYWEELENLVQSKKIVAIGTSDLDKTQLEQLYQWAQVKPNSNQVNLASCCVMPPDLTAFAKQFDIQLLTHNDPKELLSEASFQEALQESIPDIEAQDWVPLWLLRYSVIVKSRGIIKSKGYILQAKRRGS
# UniProt O55234: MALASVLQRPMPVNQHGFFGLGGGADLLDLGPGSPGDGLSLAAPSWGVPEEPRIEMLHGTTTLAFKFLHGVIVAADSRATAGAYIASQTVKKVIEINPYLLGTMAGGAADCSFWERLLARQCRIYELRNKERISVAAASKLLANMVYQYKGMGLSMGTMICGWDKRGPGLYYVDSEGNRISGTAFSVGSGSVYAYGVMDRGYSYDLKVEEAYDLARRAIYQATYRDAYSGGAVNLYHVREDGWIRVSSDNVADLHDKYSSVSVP
# The other results are listed elsewhere or left out. Most entries show no effect beyond the scatter of the controls.
# Compound: CN[C@@H]1C[C@H]2O[C@@](C)([C@@H]1OC)n1c3ccccc3c3c4c(c5c6ccccc6n2c5c31)C(=O)NC4 [staurosporine]
# Experiment: log2 fold change of pooled soluble protein (PISA), ligand vs vehicle (log2 ratio); higher = more thermally stabilized
# Conditions: ligand concentration: 20 uM; assay format: PISA pool 52.9/55.5/58.6 C
row,Target,log2 fold change of pooled soluble protein
1,UniProt O88895,-0.294
2,UniProt O09131,0.0615
3,UniProt O09158,0.0335
4,UniProt O35657,0.113
5,UniProt O35664,0.231
6,UniProt O88958,0.0519
7,UniProt O35166,0.982
8,UniProt O08808,0.0218
9,UniProt O88543,-0.0614
10,UniProt P00375,-0.0471
11,UniProt O35685,0.042
12,UniProt P01635,0.0605
13,UniProt O70378,-0.0736
14,UniProt P00329,0.00166
15,UniProt O70589,0.0919
16,UniProt O54946,0.204
17,UniProt O88833,0.00106
18,UniProt O08705,0.201
19,UniProt O35445,-0.577

row,Target,log2 fold change of pooled soluble protein
1,UniProt O70572,0.266
2,UniProt O35386,0.115
3,UniProt P01831,0.0905
4,UniProt O70492,-0.071
5,UniProt O35943,0.0974
6,UniProt O09053,-0.33
7,UniProt O09172,-0.016
8,UniProt O55234,0.0375
9,UniProt O88986,-0.055
10,P01863;P01865,0.0629
11,UniProt O09117,-0.0724
12,UniProt O09173,0.0271
13,UniProt O55091,0.0728
14,UniProt O88286,-0.325
15,UniProt O55239,0.328
16,UniProt O88685,-0.0665
17,UniProt O35678,-0.233
18,UniProt O35114,0.0373

# Some of the entries so far, tab-delimited.
row	Target	log2 fold change of pooled soluble protein
5	UniProt O35664	0.231
6	UniProt O88958	0.0519
7	UniProt O35166	0.982
8	UniProt O08808	0.0218
9	UniProt O88543	-0.0614
10	UniProt P00375	-0.0471
